From publication PMC12863303 come the findings set out here.

By UniProt entry, the sequences of proteins in these tests, tags left out.
UniProt P0DMV8: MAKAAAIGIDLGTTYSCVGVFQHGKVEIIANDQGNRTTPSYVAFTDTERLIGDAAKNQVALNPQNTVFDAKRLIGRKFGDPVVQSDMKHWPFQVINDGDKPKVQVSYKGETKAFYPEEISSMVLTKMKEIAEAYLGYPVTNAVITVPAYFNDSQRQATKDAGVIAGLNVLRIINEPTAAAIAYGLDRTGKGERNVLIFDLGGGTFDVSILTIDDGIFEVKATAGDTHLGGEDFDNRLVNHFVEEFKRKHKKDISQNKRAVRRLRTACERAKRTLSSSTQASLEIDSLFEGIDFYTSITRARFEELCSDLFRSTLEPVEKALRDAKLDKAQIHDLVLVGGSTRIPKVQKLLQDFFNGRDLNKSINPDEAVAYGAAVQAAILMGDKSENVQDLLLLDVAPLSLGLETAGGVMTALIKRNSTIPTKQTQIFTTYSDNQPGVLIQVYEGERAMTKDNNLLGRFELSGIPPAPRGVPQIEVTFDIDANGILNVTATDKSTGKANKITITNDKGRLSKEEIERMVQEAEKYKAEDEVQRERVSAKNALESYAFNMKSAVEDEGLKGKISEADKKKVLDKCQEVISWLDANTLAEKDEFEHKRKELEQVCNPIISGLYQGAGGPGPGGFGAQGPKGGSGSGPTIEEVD

In the assay the target is GFP–Hsp70 (HSPA1A) (human) (UniProt P0DMV8). The experiment in a line: co-IP; HeLa cells co-transfected with Myc-NONO and GFP or GFP–Hsp70; untreated or SFN for 6 h; RIPA lysate; GFP-Trap Agarose 1 h at 4°C; wash 10 mM Tris-HCl pH 7.5, 150 mM NaCl, 0.05% NP-40, 0.5 mM EDTA; western blot. For orientation: In western blotting, separated proteins are transferred to a membrane and probed.

Results are given in words; binding and its absence hold for the method and conditions named. In cells and extracts the contact can be indirect. Some results given as binding are weak or reduced against the parent protein; the word gives no strength. Sequences can lack the tags named with a protein.

B1: Myc epitope-tagged NONO (protein, UniProt Q15233 1-471)
chain: MQSNKTFNLEKQNHTPRKHHQHHHQQQHHQQQQQQPPPPPIPANGQQASSQNEGLTIDLKNFRKPGEKTFTQRSRLFVGNLPPDITEEEMRKLFEKYGKAGEVFIHKDKGFGFIRLETRTLAEIAKVELDNMPLRGKQLRVRFACHSASLTVRNLPQYVSNELLEEAFSVFGQVERAVVIVDDRGRPSGKGIVEFSGKPAARKALDRCSEGSFLLTTFPRPVTVEPMDQLDDEEGLPEKLVIKNQQFHKEREQPPRFAQPGSFEYEYAMRWKALIEMEKQQQDQVDRNIKEAREKLEMEMEAARHEHQVMLMRQDLMRRQEELRRMEELHNQEVQKRKQLELRQEEERRRREEEMRRQQEEMMRRQQEGFKGTFPDAREQEIRMGQMAMGGAMGINNRGAMPPAPVPAGTPAPPGPATMMPDGTLGLTPPTTERFGQAATMEGIGAIGGTPPAFNRAAPGAEFAPNKRRRY
With B1, the binding result is “binds”.

B2: endogenous NONO (protein, UniProt Q15233 1-471)
chain: MQSNKTFNLEKQNHTPRKHHQHHHQQQHHQQQQQQPPPPPIPANGQQASSQNEGLTIDLKNFRKPGEKTFTQRSRLFVGNLPPDITEEEMRKLFEKYGKAGEVFIHKDKGFGFIRLETRTLAEIAKVELDNMPLRGKQLRVRFACHSASLTVRNLPQYVSNELLEEAFSVFGQVERAVVIVDDRGRPSGKGIVEFSGKPAARKALDRCSEGSFLLTTFPRPVTVEPMDQLDDEEGLPEKLVIKNQQFHKEREQPPRFAQPGSFEYEYAMRWKALIEMEKQQQDQVDRNIKEAREKLEMEMEAARHEHQVMLMRQDLMRRQEELRRMEELHNQEVQKRKQLELRQEEERRRREEEMRRQQEEMMRRQQEGFKGTFPDAREQEIRMGQMAMGGAMGINNRGAMPPAPVPAGTPAPPGPATMMPDGTLGLTPPTTERFGQAATMEGIGAIGGTPPAFNRAAPGAEFAPNKRRRY
Regarding B2, the binding result is recorded as “binds”.
